The list shows a part of the results. Hit calls seldom repeat between salt and free forms of one compound.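 Kinases were expressed as nanoluciferase fusions in K562 cells and luminescence was read every 4 h between 2 and 18 h as percent of control, DMSO set to 100% and a positive control to 0%. A time point counts as decreased when the signal drops significantly (2 sigma). The hit call is the authors' own, does not follow from the count of time points alone, and its rule is not shown.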
How the values were obtained:
Experiment in all cases: number of time points (of 5) at which kinase-Nluc abundance scored as decreased, DMSO-normalised (count); higher = more persistent destabilization
Settings in all cases: K562; 2-18 h
[1] = target: FLT3 (UniProt P36888)
[2] = target: FYN (UniProt P06241)
[3] = target: GSK3A (UniProt P49840)
[4] = target: HER2 (UniProt P04626)
[5] = target: INSRR (UniProt P14616)
[6] = target: IRAK3 (UniProt Q9Y616)
[7] = target: JAK1 (UniProt P23458)
[8] = target: LCK (UniProt P06239)
[9] = target: LIMK1 (UniProt P53667)
[10] = target: LIMK2 (UniProt P53671)
[11] = target: LMTK2 (UniProt Q8IWU2)
[12] = target: LYN (UniProt P07948)
[13] = target: MAP2K1 (UniProt Q02750)
[14] = target: MAP2K2 (UniProt P36507)
[15] = target: MAP4K2 (UniProt Q12851)
[16] = target: MAPK1 (UniProt P28482)
[17] = target: MAPK4 (UniProt P31152)
[18] = target: MAPKAPK2 (UniProt P49137)
[19] = target: MKNK1 (UniProt Q9BUB5)
[20] = target: NTRK2 (UniProt Q16620)

The chains behind the UniProt entries cited, without tags or fusion partners. Where a name states a change or a piece, a line headed by the entry shows the natural chain unless it says otherwise.
UniProt P49840: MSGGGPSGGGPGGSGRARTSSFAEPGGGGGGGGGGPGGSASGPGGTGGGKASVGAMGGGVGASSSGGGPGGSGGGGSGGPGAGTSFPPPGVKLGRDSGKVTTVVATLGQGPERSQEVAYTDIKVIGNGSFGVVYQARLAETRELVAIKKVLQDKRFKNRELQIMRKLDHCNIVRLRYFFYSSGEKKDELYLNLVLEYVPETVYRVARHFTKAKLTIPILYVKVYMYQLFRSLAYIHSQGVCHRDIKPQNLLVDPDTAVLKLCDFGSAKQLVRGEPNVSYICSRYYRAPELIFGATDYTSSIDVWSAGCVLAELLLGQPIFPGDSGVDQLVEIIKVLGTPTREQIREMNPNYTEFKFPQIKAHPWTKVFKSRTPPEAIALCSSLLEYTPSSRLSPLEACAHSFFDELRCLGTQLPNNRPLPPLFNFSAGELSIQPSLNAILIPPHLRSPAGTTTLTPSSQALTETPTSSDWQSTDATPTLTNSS
UniProt P14616: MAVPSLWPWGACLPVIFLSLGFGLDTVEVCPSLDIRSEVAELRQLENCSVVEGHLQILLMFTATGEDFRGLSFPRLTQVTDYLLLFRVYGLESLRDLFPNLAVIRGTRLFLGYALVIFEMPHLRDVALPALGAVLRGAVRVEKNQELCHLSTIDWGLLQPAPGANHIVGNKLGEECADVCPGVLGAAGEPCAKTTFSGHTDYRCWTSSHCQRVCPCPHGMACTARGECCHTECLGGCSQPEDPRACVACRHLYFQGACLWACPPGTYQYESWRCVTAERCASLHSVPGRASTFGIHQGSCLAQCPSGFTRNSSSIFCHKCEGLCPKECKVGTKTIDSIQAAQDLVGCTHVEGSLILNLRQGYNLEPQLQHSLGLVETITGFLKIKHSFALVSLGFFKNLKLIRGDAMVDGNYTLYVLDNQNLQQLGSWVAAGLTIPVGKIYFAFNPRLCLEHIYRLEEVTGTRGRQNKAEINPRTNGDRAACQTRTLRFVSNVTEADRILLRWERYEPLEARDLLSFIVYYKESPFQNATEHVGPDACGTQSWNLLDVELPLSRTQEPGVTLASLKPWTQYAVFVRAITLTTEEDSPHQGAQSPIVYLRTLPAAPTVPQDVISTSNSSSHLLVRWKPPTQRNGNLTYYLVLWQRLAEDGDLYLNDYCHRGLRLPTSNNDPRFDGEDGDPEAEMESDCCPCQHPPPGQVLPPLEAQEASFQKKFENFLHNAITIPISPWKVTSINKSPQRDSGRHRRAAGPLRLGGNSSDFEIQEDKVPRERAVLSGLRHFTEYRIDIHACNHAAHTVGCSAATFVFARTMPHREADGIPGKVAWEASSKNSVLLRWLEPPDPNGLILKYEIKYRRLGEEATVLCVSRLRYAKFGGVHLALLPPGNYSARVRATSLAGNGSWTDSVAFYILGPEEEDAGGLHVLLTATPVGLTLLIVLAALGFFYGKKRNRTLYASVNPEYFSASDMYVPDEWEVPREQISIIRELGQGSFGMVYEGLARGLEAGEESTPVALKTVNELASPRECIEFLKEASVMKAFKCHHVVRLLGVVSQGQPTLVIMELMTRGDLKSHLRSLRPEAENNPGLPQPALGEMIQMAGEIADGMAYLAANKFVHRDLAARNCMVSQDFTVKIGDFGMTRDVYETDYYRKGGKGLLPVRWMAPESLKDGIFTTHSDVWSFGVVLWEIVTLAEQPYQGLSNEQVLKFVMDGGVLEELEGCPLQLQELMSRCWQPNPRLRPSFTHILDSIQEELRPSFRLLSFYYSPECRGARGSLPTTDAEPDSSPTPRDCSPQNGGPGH
UniProt Q9Y616: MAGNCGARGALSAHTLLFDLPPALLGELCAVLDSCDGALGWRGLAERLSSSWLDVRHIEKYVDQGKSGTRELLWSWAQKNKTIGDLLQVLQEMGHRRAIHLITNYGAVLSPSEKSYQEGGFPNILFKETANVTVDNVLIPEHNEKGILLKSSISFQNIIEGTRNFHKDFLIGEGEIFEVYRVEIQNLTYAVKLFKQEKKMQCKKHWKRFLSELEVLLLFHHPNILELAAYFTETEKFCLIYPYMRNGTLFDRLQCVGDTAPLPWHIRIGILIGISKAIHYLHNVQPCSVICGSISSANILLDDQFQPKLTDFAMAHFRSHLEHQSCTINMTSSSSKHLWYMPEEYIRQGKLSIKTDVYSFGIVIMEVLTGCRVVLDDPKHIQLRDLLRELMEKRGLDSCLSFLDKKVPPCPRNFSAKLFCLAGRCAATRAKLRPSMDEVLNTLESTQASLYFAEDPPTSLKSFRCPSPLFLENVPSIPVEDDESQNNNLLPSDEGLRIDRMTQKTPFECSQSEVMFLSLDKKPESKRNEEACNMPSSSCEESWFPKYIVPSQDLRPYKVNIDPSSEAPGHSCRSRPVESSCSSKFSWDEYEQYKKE
UniProt P23458: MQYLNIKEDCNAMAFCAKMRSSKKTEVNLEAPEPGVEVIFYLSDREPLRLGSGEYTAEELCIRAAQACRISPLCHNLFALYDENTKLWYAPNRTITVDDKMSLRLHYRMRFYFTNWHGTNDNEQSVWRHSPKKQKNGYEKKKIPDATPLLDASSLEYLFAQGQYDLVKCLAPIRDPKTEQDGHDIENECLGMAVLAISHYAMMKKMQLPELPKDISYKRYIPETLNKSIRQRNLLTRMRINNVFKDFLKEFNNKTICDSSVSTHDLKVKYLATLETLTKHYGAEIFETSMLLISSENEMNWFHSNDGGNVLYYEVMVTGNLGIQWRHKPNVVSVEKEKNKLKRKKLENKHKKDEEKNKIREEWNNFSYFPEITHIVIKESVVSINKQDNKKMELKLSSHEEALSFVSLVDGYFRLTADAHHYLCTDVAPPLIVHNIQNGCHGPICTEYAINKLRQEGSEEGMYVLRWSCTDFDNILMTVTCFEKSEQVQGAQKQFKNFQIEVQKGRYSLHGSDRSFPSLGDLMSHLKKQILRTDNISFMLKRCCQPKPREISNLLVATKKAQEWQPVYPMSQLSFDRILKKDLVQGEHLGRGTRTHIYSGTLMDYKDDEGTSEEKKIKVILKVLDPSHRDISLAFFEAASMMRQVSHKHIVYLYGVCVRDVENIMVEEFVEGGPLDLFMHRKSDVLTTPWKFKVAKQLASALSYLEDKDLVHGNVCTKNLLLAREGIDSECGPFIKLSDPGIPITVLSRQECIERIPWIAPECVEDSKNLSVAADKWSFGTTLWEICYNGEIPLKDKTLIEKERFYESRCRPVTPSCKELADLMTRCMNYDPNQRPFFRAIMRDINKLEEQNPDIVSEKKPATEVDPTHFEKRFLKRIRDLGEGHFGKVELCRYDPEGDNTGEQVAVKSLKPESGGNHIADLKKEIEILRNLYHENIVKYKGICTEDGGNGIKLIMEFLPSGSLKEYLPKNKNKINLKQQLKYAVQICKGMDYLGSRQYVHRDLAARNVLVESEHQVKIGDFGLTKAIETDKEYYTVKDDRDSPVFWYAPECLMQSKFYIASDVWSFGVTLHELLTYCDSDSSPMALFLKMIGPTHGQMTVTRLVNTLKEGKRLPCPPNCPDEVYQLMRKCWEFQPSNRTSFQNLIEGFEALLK
UniProt P06239: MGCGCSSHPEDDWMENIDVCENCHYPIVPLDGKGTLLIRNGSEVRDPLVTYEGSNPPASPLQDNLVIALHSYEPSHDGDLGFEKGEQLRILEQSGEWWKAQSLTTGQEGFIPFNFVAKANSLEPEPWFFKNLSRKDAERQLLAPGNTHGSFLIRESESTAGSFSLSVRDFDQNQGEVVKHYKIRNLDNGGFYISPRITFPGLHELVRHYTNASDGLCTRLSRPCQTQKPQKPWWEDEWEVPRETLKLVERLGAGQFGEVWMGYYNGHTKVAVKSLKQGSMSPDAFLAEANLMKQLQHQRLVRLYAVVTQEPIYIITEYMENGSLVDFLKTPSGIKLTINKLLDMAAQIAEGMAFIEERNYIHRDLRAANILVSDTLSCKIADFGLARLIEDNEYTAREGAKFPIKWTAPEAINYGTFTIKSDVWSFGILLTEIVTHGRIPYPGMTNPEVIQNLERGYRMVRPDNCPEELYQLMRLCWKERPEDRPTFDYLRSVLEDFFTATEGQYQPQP
UniProt Q8IWU2: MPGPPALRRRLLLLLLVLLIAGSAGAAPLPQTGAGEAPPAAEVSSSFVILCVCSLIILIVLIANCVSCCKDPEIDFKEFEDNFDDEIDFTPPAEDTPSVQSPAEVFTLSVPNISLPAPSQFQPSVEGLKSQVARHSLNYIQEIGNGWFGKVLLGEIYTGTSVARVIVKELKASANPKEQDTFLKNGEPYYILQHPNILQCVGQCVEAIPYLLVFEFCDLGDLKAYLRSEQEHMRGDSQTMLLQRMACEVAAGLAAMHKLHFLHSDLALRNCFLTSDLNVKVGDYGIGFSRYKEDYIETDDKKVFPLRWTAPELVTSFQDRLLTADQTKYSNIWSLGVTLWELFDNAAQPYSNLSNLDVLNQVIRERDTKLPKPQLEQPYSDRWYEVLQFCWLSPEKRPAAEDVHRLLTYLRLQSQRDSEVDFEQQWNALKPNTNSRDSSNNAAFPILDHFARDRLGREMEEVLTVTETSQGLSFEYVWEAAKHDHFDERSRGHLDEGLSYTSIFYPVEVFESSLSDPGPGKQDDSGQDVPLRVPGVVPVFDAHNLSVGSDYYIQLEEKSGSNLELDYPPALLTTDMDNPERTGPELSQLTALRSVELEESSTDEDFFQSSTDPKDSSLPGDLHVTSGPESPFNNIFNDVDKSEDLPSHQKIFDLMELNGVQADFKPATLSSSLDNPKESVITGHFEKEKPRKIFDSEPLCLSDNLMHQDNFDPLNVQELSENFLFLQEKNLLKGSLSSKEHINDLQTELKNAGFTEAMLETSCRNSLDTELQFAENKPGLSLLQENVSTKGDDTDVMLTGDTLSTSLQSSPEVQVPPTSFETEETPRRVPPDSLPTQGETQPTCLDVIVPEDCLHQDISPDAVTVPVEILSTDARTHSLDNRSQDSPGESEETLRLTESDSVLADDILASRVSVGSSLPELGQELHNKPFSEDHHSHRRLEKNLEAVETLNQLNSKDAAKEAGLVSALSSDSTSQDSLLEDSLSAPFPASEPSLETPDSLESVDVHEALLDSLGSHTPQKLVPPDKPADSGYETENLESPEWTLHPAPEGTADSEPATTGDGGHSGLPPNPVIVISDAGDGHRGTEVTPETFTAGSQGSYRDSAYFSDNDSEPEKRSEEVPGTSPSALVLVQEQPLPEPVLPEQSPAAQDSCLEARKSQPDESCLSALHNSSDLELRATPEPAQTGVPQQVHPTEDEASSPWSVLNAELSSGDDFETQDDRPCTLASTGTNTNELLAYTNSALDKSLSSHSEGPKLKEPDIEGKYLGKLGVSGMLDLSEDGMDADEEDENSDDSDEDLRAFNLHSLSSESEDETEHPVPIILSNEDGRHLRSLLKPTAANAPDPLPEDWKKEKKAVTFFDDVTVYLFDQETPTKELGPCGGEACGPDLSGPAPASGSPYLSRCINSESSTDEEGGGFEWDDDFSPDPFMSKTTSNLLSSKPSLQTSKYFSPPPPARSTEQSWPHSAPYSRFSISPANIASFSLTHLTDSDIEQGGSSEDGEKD
UniProt P07948: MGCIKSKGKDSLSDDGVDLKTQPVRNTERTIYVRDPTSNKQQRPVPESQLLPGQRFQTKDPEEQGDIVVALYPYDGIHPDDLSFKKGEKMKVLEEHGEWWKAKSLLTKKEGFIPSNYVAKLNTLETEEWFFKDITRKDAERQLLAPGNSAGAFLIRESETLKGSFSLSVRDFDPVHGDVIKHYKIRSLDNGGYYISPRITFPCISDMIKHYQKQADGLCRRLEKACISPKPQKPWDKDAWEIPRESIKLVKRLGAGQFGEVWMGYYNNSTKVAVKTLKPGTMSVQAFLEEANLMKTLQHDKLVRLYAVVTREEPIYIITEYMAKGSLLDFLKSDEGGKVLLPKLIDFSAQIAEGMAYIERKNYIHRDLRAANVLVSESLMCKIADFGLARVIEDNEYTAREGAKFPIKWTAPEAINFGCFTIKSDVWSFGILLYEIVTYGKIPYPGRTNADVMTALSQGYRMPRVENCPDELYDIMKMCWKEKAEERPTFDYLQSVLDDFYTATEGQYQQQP
UniProt P49137, whole entry, looked up: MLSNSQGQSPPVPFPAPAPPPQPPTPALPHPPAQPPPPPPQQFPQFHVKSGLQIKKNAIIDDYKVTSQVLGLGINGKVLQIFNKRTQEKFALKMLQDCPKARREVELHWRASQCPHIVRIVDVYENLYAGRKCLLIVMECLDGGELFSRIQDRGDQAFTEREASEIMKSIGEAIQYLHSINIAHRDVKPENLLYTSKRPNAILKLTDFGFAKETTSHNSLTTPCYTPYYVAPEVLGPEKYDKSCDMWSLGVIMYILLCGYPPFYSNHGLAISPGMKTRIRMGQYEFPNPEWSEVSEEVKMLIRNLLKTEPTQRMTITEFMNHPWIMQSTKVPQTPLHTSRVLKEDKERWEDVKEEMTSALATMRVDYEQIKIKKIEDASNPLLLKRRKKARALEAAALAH

SMILES | number of time points [1] | number of time points [2] | number of time points [3] | number of time points [4] | number of time points [5] | number of time points [6] | number of time points [7] | number of time points [8] | number of time points [9] | number of time points [10] | number of time points [11] | number of time points [12] | number of time points [13] | number of time points [14] | number of time points [15] | number of time points [16] | number of time points [17] | number of time points [18] | number of time points [19] | number of time points [20]
CC(C)NC(=O)N1CC[C@H](NC2=Nc3cc(F)ccc3N(CC(F)F)c3ccc(Cl)cc32)C1 (10 µM) | 0 | 0 | 0 | 0 | 0 | 0 | 0 | 0 | 0 | 0 | 0 | 0 | 0 | 0 | 0 | 0 | 0 | 0 | 0 | 0
C[C@@H]1C(=O)O[C@H](C)[C@H]1C[C@@H](O)[C@](C)(O)[C@H]1CC[C@@]2(O)C3=CC(=O)[C@@H]4C[C@@H](O)[C@@H](O)C[C@]4(C)[C@H]3CC[C@]12C [Cyasterone] (10 µM) | 0 | 0 | 0 | 0 | 0 | 0 | 0 | 0 | 0 | 0 | 0 | 0 | 0 | 0 | 0 | 0 | 0 | 0 | 0 | 0
COc1ccc(C(=O)Nc2sc3c(c2C(N)=O)CCCC3)cc1OC (10 µM) | 0 | 0 | 0 | 0 | 0 | 0 | 0 | 0 | 0 | 0 | 0 | 0 | 0 | 0 | 0 | 0 | 0 | 0 | 0 | 0
CCOc1cc(C(=O)N2CCC(N3CCN(C)CC3)CC2)ccc1Nc1ncc2c(n1)N(C1CCCC1)c1ccccc1C(=O)N2C (10 µM) | 0 | 0 | 0 | 0 | 1 | 0 | 0 | 0 | 0 | 0 | 0 | 0 | 0 | 0 | 0 | 0 | 0 | 0 | 0 | 0
Cc1ccc(NC(=S)NNc2c([N+](=O)[O-])cc(C(F)(F)F)cc2[N+](=O)[O-])cc1Cl (10 µM) | 0 | 0 | 0 | 0 | 0 | 0 | 0 | 0 | 0 | 0 | 0 | 0 | 0 | 0 | 0 | 0 | 0 | 0 | 0 | 0
C/C(=C1/C(=O)Nc2ccc(NC(N)=O)cc21)c1ccc[nH]1 (10 µM) | 0 | 0 | 0 | 0 | 0 | 3 | 0 | 0 | 0 | 0 | 0 | 0 | 0 | 0 | 0 | 0 | 0 | 0 | 0 | 0
CCN(CC)c1ccc2cc(C(=O)N3CCN(C(=O)C4=Cc5c(Br)cccc5S4(=O)=O)CC3)c(=O)oc2c1 (2 µM) | 0 | 1 | 0 | 0 | 0 | 0 | 0 | 0 | 0 | 0 | 0 | 0 | 0 | 0 | 0 | 0 | 0 | 0 | 0 | 0
Cc1c(CN2CCN(C(=O)[C@H](C)O)CC2)sc2c(N3CCOCC3)nc(-c3cnc(N)nc3)nc12 [Apitolisib] (10 µM) | 0 | 0 | 0 | 2 | 1 | 0 | 0 | 0 | 0 | 0 | 0 | 1 | 0 | 0 | 0 | 0 | 0 | 0 | 0 | 0
Cc1ccc2nc(NC(=O)CSc3nc4c(c(=O)n3-c3ccccc3)SCC4)sc2c1 (2 µM) | 0 | 0 | 0 | 0 | 0 | 0 | 0 | 0 | 0 | 0 | 0 | 0 | 0 | 0 | 0 | 0 | 0 | 0 | 0 | 0
C[C@]1(O)CCC[C@@H]1n1c(=O)c(C(F)F)cc2cnc(NC3CCN(S(C)(=O)=O)CC3)nc21 (10 µM) | 0 | 0 | 0 | 0 | 0 | 0 | 0 | 0 | 0 | 0 | 0 | 0 | 0 | 0 | 0 | 0 | 0 | 0 | 0 | 0
Cn1cc(Nc2nccc(N3C[C@H]4CC[C@@H](C3)N4C(=O)[C@@H]3CC3(F)F)n2)cn1 (10 µM) | 0 | 0 | 0 | 0 | 0 | 0 | 0 | 0 | 4 | 0 | 0 | 0 | 0 | 0 | 0 | 0 | 0 | 0 | 0 | 0
Cc1ccc(-c2c(C(=O)CF)n(CCCO)c3ncnc(N)c23)cc1 (10 µM) | 0 | 0 | 0 | 0 | 0 | 0 | 0 | 0 | 0 | 0 | 0 | 0 | 0 | 0 | 0 | 0 | 0 | 0 | 0 | 0
Cc1cc2cc(Nc3ccnc(Nc4ccc5[nH]c(C)cc5c4)n3)ccc2[nH]1 (2.5 µM) | 0 | 0 | 0 | 0 | 0 | 0 | 0 | 0 | 0 | 0 | 2 | 0 | 0 | 0 | 0 | 0 | 0 | 0 | 0 | 0
O=C1NC(=O)/C(=C/c2ccc3c(c2)OC(F)(F)O3)S1 (10 µM) | 0 | 0 | 0 | 0 | 0 | 0 | 0 | 0 | 0 | 0 | 0 | 0 | 0 | 0 | 0 | 0 | 0 | 0 | 0 | 0
NCCN1CCN(C/C=C/C(=O)N2CCC[C@@H](n3nc(-c4ccc(Oc5ccccc5)cc4)c4c(N)ncnc43)C2)CC1 [Ibrutinib-MPEA] (10 µM) | 0 | 0 | 0 | 0 | 0 | 0 | 0 | 0 | 0 | 0 | 0 | 0 | 0 | 0 | 0 | 0 | 0 | 0 | 0 | 0
c1cc2c(cc1O[C@H]1OC[C@H]3[C@@H]1CO[C@@H]3c1ccc3c(c1)OCO3)OCO2 [Sesamolin] (10 µM) | 0 | 0 | 0 | 0 | 0 | 0 | 0 | 0 | 0 | 0 | 0 | 0 | 0 | 0 | 0 | 0 | 0 | 0 | 0 | 0
CCOc1ccc(C(=O)Nc2ncc([N+](=O)[O-])s2)cc1 (10 µM) | 0 | 0 | 0 | 0 | 0 | 0 | 0 | 0 | 0 | 0 | 0 | 0 | 0 | 0 | 0 | 0 | 0 | 0 | 0 | 0
Fc1ccc(-c2nc(-c3ccccc3F)[nH]c2-c2ccncc2)cc1 (2.5 µM) | 0 | 0 | 0 | 0 | 0 | 0 | 0 | 0 | 0 | 0 | 0 | 0 | 0 | 0 | 0 | 0 | 0 | 0 | 0 | 0
N#CC(c1ccnc(NCCc2cccnc2)n1)c1nc2ccccc2s1 (stereo not given) (10 µM) | 0 | 0 | 0 | 0 | 0 | 0 | 0 | 0 | 0 | 0 | 0 | 0 | 0 | 0 | 0 | 0 | 0 | 0 | 0 | 0
CC(C)(C)NC(=O)c1cncn1C1CCN(c2ccc(-c3nnc(C(F)(F)F)o3)cn2)CC1 (10 µM) | 1 | 0 | 0 | 0 | 0 | 0 | 0 | 0 | 0 | 0 | 1 | 0 | 0 | 0 | 0 | 0 | 0 | 0 | 0 | 0
Cc1cc(Nc2cc3ncccc3c(N[C@@H]3C[C@H]4CC[C@@H](C3)N4CCC#N)n2)n[nH]1 [Izencitinib] (10 µM) | 0 | 0 | 0 | 0 | 0 | 0 | 0 | 0 | 0 | 0 | 0 | 0 | 0 | 0 | 0 | 0 | 0 | 0 | 0 | 0
O=C(NCCO)c1ccc2c(c1)nc(Nc1cccc(Cl)c1)c1ccncc12 [CK2 inhibitor 2] (10 µM) | 0 | 0 | 0 | 0 | 0 | 0 | 0 | 0 | 0 | 0 | 0 | 0 | 0 | 0 | 0 | 0 | 0 | 0 | 0 | 0
Cc1cc([C@H](C)Nc2ccccc2)c2oc(N3CCOCC3)cc(=O)c2c1 (10 µM) | 0 | 0 | 0 | 0 | 0 | 0 | 0 | 0 | 0 | 0 | 0 | 0 | 0 | 0 | 0 | 0 | 0 | 0 | 0 | 0
COc1cc2ncnc(Nc3cccc(Cl)c3)c2cc1OC (10 µM) | 0 | 0 | 0 | 0 | 0 | 0 | 0 | 0 | 0 | 0 | 0 | 0 | 0 | 0 | 0 | 0 | 0 | 0 | 0 | 0

Not a retest: 2 of the compounds above.
SMILES | number of time points [1] | number of time points [2] | number of time points [3] | number of time points [4] | number of time points [5] | number of time points [6] | number of time points [7] | number of time points [8] | number of time points [9] | number of time points [10] | number of time points [11] | number of time points [12] | number of time points [13] | number of time points [14] | number of time points [15] | number of time points [16] | number of time points [17] | number of time points [18] | number of time points [19] | number of time points [20]
C[C@@H]1C(=O)O[C@H](C)[C@H]1C[C@@H](O)[C@](C)(O)[C@H]1CC[C@@]2(O)C3=CC(=O)[C@@H]4C[C@@H](O)[C@@H](O)C[C@]4(C)[C@H]3CC[C@]12C [Cyasterone] (10 µM) | 0 | 0 | 0 | 0 | 0 | 0 | 0 | 0 | 0 | 0 | 0 | 0 | 0 | 0 | 0 | 0 | 0 | 0 | 0 | 0
COc1ccc(C(=O)Nc2sc3c(c2C(N)=O)CCCC3)cc1OC (10 µM) | 0 | 0 | 0 | 0 | 0 | 0 | 0 | 0 | 0 | 0 | 0 | 0 | 0 | 0 | 0 | 0 | 0 | 0 | 0 | 0
